Reference: article PMC9124971
These are yes or no findings as the source states them, for the method shown. Binding seen in cells or lysates may run through a third protein. Some entries that bind do so weakly or less than the wild type.

Protein sequences, listed by entry. Tags and fused reporters are not part of them.
UniProt P48432: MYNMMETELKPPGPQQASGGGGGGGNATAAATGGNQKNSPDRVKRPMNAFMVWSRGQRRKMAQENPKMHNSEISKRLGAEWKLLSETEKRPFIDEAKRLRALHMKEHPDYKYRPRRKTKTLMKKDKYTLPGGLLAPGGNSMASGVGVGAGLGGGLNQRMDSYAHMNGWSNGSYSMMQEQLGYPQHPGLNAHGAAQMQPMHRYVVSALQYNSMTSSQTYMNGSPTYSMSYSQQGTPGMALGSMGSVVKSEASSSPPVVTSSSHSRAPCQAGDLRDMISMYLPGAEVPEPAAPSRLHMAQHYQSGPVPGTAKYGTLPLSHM
UniProt Q14839: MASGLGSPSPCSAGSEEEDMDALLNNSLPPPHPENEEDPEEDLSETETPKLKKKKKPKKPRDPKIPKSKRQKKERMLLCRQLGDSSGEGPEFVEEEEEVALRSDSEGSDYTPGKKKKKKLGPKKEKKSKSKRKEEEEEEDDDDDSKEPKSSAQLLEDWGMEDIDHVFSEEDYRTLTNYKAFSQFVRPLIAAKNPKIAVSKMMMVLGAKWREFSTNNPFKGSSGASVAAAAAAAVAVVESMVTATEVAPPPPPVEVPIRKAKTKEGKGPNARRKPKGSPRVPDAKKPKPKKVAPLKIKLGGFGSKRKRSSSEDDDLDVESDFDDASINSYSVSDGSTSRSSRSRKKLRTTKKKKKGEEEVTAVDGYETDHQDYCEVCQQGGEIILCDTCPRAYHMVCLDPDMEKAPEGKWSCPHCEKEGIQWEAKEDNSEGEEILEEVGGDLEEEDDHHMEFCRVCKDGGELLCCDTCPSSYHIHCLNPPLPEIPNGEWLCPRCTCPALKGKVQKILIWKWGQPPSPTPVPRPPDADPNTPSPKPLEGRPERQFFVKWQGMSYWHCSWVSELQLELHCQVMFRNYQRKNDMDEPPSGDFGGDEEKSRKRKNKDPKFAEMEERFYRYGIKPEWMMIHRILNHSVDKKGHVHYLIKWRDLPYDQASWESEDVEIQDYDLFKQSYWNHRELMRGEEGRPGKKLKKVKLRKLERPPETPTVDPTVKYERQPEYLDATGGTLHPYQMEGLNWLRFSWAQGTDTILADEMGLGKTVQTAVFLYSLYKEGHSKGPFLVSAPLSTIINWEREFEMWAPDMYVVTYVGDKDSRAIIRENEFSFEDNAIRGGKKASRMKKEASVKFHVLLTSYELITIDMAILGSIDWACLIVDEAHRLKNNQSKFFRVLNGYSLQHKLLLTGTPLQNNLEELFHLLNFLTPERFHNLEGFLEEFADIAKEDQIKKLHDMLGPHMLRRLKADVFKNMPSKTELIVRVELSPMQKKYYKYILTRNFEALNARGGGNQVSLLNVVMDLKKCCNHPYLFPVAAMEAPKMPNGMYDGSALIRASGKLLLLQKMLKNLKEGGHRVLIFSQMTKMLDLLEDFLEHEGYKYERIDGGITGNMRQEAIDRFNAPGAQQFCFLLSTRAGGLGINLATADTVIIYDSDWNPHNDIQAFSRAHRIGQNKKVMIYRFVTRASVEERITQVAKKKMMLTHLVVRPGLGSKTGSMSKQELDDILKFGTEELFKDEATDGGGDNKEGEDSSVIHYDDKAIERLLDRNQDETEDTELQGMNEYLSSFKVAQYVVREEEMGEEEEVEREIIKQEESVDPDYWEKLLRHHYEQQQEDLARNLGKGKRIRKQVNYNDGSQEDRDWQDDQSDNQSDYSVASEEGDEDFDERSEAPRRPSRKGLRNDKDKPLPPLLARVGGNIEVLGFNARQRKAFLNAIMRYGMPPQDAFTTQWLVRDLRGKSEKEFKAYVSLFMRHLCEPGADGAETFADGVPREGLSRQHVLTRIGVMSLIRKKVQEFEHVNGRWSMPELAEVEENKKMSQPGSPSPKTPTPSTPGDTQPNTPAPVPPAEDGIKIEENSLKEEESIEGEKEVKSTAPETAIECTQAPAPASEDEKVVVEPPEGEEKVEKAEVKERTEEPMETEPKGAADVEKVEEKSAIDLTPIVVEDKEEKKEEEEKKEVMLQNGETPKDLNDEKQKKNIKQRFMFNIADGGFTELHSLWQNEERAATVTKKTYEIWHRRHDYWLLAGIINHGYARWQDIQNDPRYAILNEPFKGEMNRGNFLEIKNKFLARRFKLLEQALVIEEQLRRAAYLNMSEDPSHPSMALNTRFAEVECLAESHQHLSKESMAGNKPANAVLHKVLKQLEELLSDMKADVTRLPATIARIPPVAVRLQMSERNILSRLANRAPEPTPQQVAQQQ

B1: CUX1 659-1505 (domain or fragment, UniProt P39880 659-1505)
chain: RIRASETGSDEAIKSILEQAKRELQVQKTAEPAQPSSASGSGNSDDAIRSILQQARREMEAQQAALDPALKQAPLSQSDITILTPKLLSTSPMPTVSSYPPLAISLKKPSAAPEAGASALPNPPALKKEAQDAPGLDPQGAADCAQGVLRQVKNEVGRSGAWKDHWWSAVQPERRNAASSEEAKAEETGGGKEKGSGGSGGGSQPRAERSQLQGPSSSEYWKEWPSAESPYSQSSELSLTGASRSETPQNSPLPSSPIVPMSKPTKPSVPPLTPEQYEVYMYQEVDTIELTRQVKEKLAKNGICQRIFGEKVLGLSQGSVSDMLSRPKPWSKLTQKGREPFIRMQLWLNGELGQGVLPVQGQQQGPVLHSVTSLQDPLQQGCVSSESTPKTSASCSPAPESPMSSSESVKSLTELVQQPCPPIEASKDSKPPEPSDPPASDSQPTTPLPLSGHSALSIQELVAMSPELDTYGITKRVKEVLTDNNLGQRLFGETILGLTQGSVSDLLARPKPWHKLSLKGREPFVRMQLWLNDPNNVEKLMDMKRMEKKAYMKRRHSSVSDSQPCEPPSVGTEYSQGASPQPQHQLKKPRVVLAPEEKEALKRAYQQKPYPSPKTIEDLATQLNLKTSTVINWFHNYRSRIRRELFIEEIQAGSQGQAGASDSPSARSGRAAPSSEGDSCDGVEATEGPGSADTEEPKSQGEAEREEVPRPAEQTEPPPSGTPGPDDARDDDHEGGPVEGPGPLPSPASATATAAPAAPEDAATSAAAAPGEGPAAPSSAPPPSNSSSSSAPRRPSSLQSLFGLPEAAGARDSRDNPLRKKKAANLNSIIHRLEKAASREEPIEWEF
B2: CUX1 879-1336 (domain or fragment, UniProt P39880 879-1336)
chain: WKEWPSAESPYSQSSELSLTGASRSETPQNSPLPSSPIVPMSKPTKPSVPPLTPEQYEVYMYQEVDTIELTRQVKEKLAKNGICQRIFGEKVLGLSQGSVSDMLSRPKPWSKLTQKGREPFIRMQLWLNGELGQGVLPVQGQQQGPVLHSVTSLQDPLQQGCVSSESTPKTSASCSPAPESPMSSSESVKSLTELVQQPCPPIEASKDSKPPEPSDPPASDSQPTTPLPLSGHSALSIQELVAMSPELDTYGITKRVKEVLTDNNLGQRLFGETILGLTQGSVSDLLARPKPWHKLSLKGREPFVRMQLWLNDPNNVEKLMDMKRMEKKAYMKRRHSSVSDSQPCEPPSVGTEYSQGASPQPQHQLKKPRVVLAPEEKEALKRAYQQKPYPSPKTIEDLATQLNLKTSTVINWFHNYRSRIRRELFIEEIQAGSQGQAGASDSPSARSGRAAPSSEGD

Columns and labels:
[1] = biological target: full length CUX1 with an N-terminal myc-tag and a C-terminal HA-tag (UniProt P39880); experiment: co-IP; HEK cells transfected with myc-CUX1-HA alone or together with FLAG-SOX2; extracts precipitated with one of two CUX1 antibodies (C-terminus peptide or aa521-621); blot with FLAG antibody
[2] = biological target: myc-tagged SOX2 (UniProt P48432); experiment: co-IP; HEK cells co-transfected with tagged constructs, harvested 24 h later; total cell extract in 20 mM Tris pH8, 137 mM NaCl, 10 mM EDTA, 1% NP40, 10% glycerol; antibodies against myc or FLAG 2 h at 4°C, protein G beads; Western blot
[3] = biological target: FLAG-tagged SOX2 (full length SOX2, F-SOX2-WT) (UniProt P48432); experiment: as above

Row | Molecule | binding [3] | further results
1 | FLAG-tagged SOX2 (full length SOX2, F-SOX2-WT) (from UniProt P48432 1-319) |  | binding [1]: binds
2 | FLAG-tagged CHD4 (from UniProt Q14839 1-1912) |  | binding [2]: binds
3 | B1 | binds | 
4 | B2 | binds | 
